No constants are given. Whether binding was seen depends on the method and setting. Binding seen in cells or lysates may run through a third protein. Some entries that bind do so weakly or less than the wild type.
Biological target: myosin-Va (human) (UniProt Q9Y4I1)
Test: co-IP; cell lysates immunoprecipitated with EXOC6A or Myo-Va antibodies, then immunoblotting with the indicated antibodies; endogenous proteins; cell line and buffer not stated

Chains of the proteins cited; added tags and fusions are not shown.
UniProt Q9Y4I1: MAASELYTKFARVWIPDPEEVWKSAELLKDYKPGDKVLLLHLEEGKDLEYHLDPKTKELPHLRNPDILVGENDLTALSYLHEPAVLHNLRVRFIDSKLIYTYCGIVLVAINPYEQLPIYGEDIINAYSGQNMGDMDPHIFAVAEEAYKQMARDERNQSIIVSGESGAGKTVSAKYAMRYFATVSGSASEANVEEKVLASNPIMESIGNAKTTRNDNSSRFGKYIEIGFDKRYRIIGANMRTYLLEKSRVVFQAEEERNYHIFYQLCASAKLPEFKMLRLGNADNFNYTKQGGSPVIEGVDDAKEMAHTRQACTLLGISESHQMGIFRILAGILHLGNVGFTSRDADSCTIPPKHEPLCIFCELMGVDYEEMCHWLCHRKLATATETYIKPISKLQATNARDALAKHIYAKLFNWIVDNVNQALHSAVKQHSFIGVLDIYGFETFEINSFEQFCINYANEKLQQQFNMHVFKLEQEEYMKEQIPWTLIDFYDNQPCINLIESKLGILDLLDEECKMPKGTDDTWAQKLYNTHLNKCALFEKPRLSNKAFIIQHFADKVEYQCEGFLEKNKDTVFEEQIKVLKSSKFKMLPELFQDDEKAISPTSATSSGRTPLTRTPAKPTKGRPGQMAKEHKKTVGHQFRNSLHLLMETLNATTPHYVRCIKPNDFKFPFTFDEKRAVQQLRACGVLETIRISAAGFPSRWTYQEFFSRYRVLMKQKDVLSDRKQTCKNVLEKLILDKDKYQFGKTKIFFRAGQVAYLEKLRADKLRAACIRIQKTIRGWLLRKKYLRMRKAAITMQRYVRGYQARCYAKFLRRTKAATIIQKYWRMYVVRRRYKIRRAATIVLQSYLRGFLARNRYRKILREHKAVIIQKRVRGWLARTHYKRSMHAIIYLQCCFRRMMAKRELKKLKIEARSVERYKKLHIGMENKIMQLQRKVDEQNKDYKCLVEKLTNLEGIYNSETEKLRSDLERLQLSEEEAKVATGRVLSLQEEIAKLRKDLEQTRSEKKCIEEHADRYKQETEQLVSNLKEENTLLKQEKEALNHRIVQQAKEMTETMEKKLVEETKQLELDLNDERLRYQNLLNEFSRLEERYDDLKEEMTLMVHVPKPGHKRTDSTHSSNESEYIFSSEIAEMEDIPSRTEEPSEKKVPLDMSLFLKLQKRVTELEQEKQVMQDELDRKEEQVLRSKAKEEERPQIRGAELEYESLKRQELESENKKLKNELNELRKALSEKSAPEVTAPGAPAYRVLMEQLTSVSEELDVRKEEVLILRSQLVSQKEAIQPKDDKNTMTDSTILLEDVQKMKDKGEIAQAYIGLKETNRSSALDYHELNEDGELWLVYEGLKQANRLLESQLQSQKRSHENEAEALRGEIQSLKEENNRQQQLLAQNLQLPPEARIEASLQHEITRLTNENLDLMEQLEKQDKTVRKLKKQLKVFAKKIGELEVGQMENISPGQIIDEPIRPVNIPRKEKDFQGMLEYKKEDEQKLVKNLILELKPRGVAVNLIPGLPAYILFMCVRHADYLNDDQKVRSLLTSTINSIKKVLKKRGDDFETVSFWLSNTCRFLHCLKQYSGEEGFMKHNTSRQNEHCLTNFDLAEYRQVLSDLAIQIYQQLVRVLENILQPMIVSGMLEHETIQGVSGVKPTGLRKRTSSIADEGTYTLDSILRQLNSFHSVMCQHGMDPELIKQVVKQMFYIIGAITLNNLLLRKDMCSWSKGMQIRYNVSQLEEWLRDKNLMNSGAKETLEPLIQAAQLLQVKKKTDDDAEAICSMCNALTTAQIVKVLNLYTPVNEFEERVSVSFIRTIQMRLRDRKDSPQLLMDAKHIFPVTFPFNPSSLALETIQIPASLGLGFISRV
UniProt Q8TAG9: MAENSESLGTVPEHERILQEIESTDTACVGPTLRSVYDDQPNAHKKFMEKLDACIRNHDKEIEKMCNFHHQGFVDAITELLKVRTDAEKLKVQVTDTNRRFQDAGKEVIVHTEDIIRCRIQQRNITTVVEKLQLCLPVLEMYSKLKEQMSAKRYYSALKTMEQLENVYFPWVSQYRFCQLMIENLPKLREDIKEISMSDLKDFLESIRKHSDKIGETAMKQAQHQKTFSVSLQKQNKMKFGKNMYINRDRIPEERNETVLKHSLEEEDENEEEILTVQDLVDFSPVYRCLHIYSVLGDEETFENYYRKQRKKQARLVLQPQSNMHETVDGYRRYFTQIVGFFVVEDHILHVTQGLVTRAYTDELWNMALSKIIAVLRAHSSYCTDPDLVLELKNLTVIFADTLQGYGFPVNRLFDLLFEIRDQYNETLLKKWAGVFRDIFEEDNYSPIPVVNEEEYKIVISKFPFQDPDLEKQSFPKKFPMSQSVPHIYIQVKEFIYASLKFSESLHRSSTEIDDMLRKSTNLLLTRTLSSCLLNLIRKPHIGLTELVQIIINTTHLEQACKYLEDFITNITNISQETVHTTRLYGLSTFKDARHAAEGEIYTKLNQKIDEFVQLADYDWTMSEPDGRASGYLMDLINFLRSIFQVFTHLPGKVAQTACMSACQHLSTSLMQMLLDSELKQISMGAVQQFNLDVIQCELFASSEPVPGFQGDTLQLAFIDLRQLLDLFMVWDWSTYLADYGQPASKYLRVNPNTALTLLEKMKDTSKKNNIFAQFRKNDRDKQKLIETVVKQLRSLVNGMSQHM

EXOC6A (from UniProt Q8TAG9 1-804)
binding: binds

From paper doi:10.1101/2025.07.25.666797
